Some of the results follow.
What follows are sequences tested against T1, OsSMF1 (Oryza sativa, UniProt Q6ZLB0 1-436) (assay: protein-binding microarray (RPBM); PBS, 2% BSA, 51.3 ng/ul salmon testes DNA, 50 uM zinc acetate, 200 nM TF, 25 C, 1 h; high values mean tight binding). Conditions: protein: recombinant; tags: N-terminal polyhistidine and DsRed monomer fusion (pET32a); chain copies: 2; label: CyDye5-dUTP incorporated in the synthesized complementary strand; 3' TTTTT single-stranded linker to array surface; dsDNA, one strand shown.
T1 sequence: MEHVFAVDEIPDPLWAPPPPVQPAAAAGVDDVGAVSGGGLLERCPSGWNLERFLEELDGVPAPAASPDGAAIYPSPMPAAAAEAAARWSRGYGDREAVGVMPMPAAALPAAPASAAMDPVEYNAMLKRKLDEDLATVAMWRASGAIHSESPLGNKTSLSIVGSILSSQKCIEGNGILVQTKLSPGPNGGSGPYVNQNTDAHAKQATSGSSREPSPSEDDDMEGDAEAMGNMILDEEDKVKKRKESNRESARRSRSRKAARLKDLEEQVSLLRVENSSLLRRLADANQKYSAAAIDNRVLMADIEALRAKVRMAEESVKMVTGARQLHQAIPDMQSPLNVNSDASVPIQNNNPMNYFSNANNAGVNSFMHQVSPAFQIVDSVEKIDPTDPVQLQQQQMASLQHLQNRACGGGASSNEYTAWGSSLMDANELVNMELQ
Outline: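 The binding signal is fluorescence intensity per array feature (arbitrary units). Readings came from an Axon 4000B scanner after a washed, 2% BSA-blocked, double-stranded custom Agilent array had been incubated for 1 h at 25 °C with 200 nM protein and 50 µM zinc acetate. The protein was a Ni–NTA-purified transcription factor fused N-terminally to polyhistidine and DsRed, expressed in E. coli BL21-CodonPlus.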

Row | Sequence | binding signal
1 | CTCCCGGCGCACTCGTCGTCGTGTTGGGTTGCCGCCGCTTCGGAGTCACCTAGTGCAG | 3910 fluorescence intensity (a.u.)
2 | TCGTCGACTCCGACGGTGCCACCGTTCCCCTTTCGTCTCCCGGAGTCACCTAGTGCAG | 3350 fluorescence intensity (a.u.)
3 | CAGGCTTAAGGATTCTCGCGTGAGAAAGAATGTTGGAATACGGAGTCACCTAGTGCAG | 4440 fluorescence intensity (a.u.)
4 | CCACGCTATCCCATGCGATTCGAGAAGGTTCCACACACACCGGAGTCACCTAGTGCAG | 41300 fluorescence intensity (a.u.)
5 | CATGTACACACCCACAGTCATCTGCTCATGTTTTCACGGTCGGAGTCACCTAGTGCAG | 3630 fluorescence intensity (a.u.)
6 | ATCATAGTATGCCGTACGGCCTGGACCTTCTGTCACGTGGCGGAGTCACCTAGTGCAG | 5660 fluorescence intensity (a.u.)
7 | AGGCATACGGCAGATAGCAGTCAACAATGCACACAGGCACCGGAGTCACCTAGTGCAG | 3750 fluorescence intensity (a.u.)
8 | CCTAACTTCTCTCTTACACCTCATTATCTAATCTTATGTGCGGAGTCACCTAGTGCAG | 4740 fluorescence intensity (a.u.)
9 | CTCCGTGATCGTCATGTCAAGACGCAAAATAAAGAGCAATCGGAGTCACCTAGTGCAG | 33400 fluorescence intensity (a.u.)
10 | AGTACACAATCAATACTTTGAATCTACTTGTCATACGCACCGGAGTCACCTAGTGCAG | 3520 fluorescence intensity (a.u.)
11 | TCGAATTAATCATATGAACTATGCGATTTTAATTAACCGTCGGAGTCACCTAGTGCAG | 5440 fluorescence intensity (a.u.)
12 | CCGTCGCCAACACAGCCACAAACCCACAATTACGCGGCGGCGGAGTCACCTAGTGCAG | 36800 fluorescence intensity (a.u.)
13 | AACTTTCAACTACAGGCTCAAGTGGCCCATTAGTGCGCCACGGAGTCACCTAGTGCAG | 3520 fluorescence intensity (a.u.)
14 | CCATTCCACTCCTGCGGCTGCTGCTCCCTCTCCCTCTTCGCGGAGTCACCTAGTGCAG | 3450 fluorescence intensity (a.u.)
15 | GAGAAAGGAACAACTACAAAAGACACACATATATACTATGCGGAGTCACCTAGTGCAG | 39400 fluorescence intensity (a.u.)
16 | GTGAGTCAGGGGCAAAAGAGTAAACTCGCGCCGCCGATTTCGGAGTCACCTAGTGCAG | 32500 fluorescence intensity (a.u.)
17 | CTCTCTCTCGGCTTCCACTCCCGTCTCCTCGTCTCCTCGCCGGAGTCACCTAGTGCAG | 4090 fluorescence intensity (a.u.)
18 | AATCGAAGTTCAATTATGCAAACATGCATTTGCTCTGCTTCGGAGTCACCTAGTGCAG | 30600 fluorescence intensity (a.u.)
19 | CGTCGTGTAGAAAAGCTACTGGAGCTTCGGTGGATTTCGACGGAGTCACCTAGTGCAG | 3140 fluorescence intensity (a.u.)
20 | AAATTTTGGCTTGACGTGTCAGGAGGCTCCTGGCATCCAACGGAGTCACCTAGTGCAG | 8550 fluorescence intensity (a.u.)
21 | AATTTTGTTACCATGTCATTGTTGGTTTACGACACCTGGACGGAGTCACCTAGTGCAG | 3710 fluorescence intensity (a.u.)

2 records picked at random from the list so far, as already listed:
Row | Sequence | binding signal
13 | AACTTTCAACTACAGGCTCAAGTGGCCCATTAGTGCGCCACGGAGTCACCTAGTGCAG | 3520 fluorescence intensity (a.u.)
10 | AGTACACAATCAATACTTTGAATCTACTTGTCATACGCACCGGAGTCACCTAGTGCAG | 3520 fluorescence intensity (a.u.)

Remaining list, next part:

Row | Sequence | binding signal
22 | ATGGGTGGTTTCGCTGACGTGGCATCCTAATCTCCATGTGCGGAGTCACCTAGTGCAG | 30700 fluorescence intensity (a.u.)
23 | CACGCAAGCGCCCCTTCCACGCGTCACGCCGTGCGGCGACCGGAGTCACCTAGTGCAG | 6640 fluorescence intensity (a.u.)
24 | GGCTTCGCCGACGGTGGCTCGGGCGACGGCGATGCTGGGGCGGAGTCACCTAGTGCAG | 58600 fluorescence intensity (a.u.)
25 | TATCCAGTATCTACGTGGAATATTTTCTCTTTCGATCGTCCGGAGTCACCTAGTGCAG | 9650 fluorescence intensity (a.u.)
26 | ATCTCATCTTCCCACTCAAATTCCACGTCCACCAACCGCCCGGAGTCACCTAGTGCAG | 5080 fluorescence intensity (a.u.)
27 | CACACACAATAGTTGCACAGTGCAGAGACAAGATTGGAAACGGAGTCACCTAGTGCAG | 34900 fluorescence intensity (a.u.)
28 | GTAATTAAATTAAATTAAATTGATTAATACCAACCCTGGTCGGAGTCACCTAGTGCAG | 24500 fluorescence intensity (a.u.)
29 | AATGTTACATAGATGCCACATCAGCTGAAACAACCATCTACGGAGTCACCTAGTGCAG | 13200 fluorescence intensity (a.u.)
30 | CGCGGCCGCCGGCGCTGTCCGGGACGCCCCGCACACCGTGCGGAGTCACCTAGTGCAG | 5740 fluorescence intensity (a.u.)
31 | AACGAGATGGATTGTATCTTCTGCACTCAGATGCCACTGCCGGAGTCACCTAGTGCAG | 28200 fluorescence intensity (a.u.)
32 | CCCCGGCGCGGCGTGACGAGGCCTTTTCTTCTTTCTTTCACGGAGTCACCTAGTGCAG | 4540 fluorescence intensity (a.u.)
33 | ATAAACAAGCTATATGCTTACGTGGAAGAGAAAGATAAATCGGAGTCACCTAGTGCAG | 5500 fluorescence intensity (a.u.)
34 | AAACAAAGATTGTATACACGTATATAAAGTATGTATACGCCGGAGTCACCTAGTGCAG | 3620 fluorescence intensity (a.u.)
35 | AACGTGGAAGTGGATTGGGTGGTGGGTGGGGATCCACCTACGGAGTCACCTAGTGCAG | 4180 fluorescence intensity (a.u.)
36 | AAATTCGAATGATAGGAGGTGAAATTTTCTGTCACATGATCGGAGTCACCTAGTGCAG | 17500 fluorescence intensity (a.u.)
37 | CAGGTTATCACACTCGACTGACTCAGTTCCACCAAAGGACCGGAGTCACCTAGTGCAG | 5000 fluorescence intensity (a.u.)
38 | TTGTGAGCTGTGACTGTATCTGCCTTGAGGTCCCAAGTAACGGAGTCACCTAGTGCAG | 6450 fluorescence intensity (a.u.)
39 | AGGCTGACATCCTTGACCCACATAATCGTTGACCTGGCTACGGAGTCACCTAGTGCAG | 3260 fluorescence intensity (a.u.)
40 | ACCTGGAGCCTCCACGTGGAGTGCAACTTCACCTACGTCGCGGAGTCACCTAGTGCAG | 13600 fluorescence intensity (a.u.)
41 | CAATTAATCACATGTTATTAGTACCTCGTTTTGCGTGAAACGGAGTCACCTAGTGCAG | 5030 fluorescence intensity (a.u.)
42 | CTGTTTCCACGTGACGGGGCGGATTATTTGGCTTGGTAGGCGGAGTCACCTAGTGCAG | 5170 fluorescence intensity (a.u.)
